Results reported in EP4793288A1.
Where a chain is given by its changes, count along the chain named. Results are given in words; binding and its absence hold for the method and conditions named. Some binding calls cover weakened binding; strength is not graded here.

B1: T22A4 (antibody, human IgG1, kappa, V domains shown)
VH: EVQLVESGGNWVQPGGSLRLSCAASGFSFRSYAMSWVRQAPGKGLEWVSSISGSGNSELYAGSVKGRFTISRDNSKNTLSLQLHSLRAEDTAMYYCAKFSAAVGFLPDYFDSWGQGTLVTVSS
VL: ELTLTQSPSSLSASVGDRVTITCQASHDISKYLNWYQQKSGKAPKLLIYDASNLETGVPSRFSGSGSGTDFTLTISSLQPEDFATYYCQQSYRTPLTFGGGTKLEIKR
B2: T23D5 (antibody, human IgG1, kappa, V domains shown)
VH: QVQLQESGPGLVKPSETLSLTCTVSGGSIDRSSHYWGWIRQPPGKGLEWLGSIYYSGITYYNPSLKSRVTISVDTSRNQFSLTLSSVTAADTAVYYCARHGSYDSWAGRYKWDRFDPWGQGTPVTVSS
VL: B1 VL with T3Q, L4M, R93S, L104V
B3: Positive control antibody (antibody, human IgG1, kappa, V domains shown)
VH: QLQLQESGPGLVKPSETLSLTCTVSGGSISSSSTYWSWIRQPPGKGLEWIGGIAYSGSTYYNPSLKSRVTISVDTSKNQFSLKLSSVTAADTAVYYCARGVRRAVPEDYWGQGTLVTVSS
VL: EIVLTQSPGTLSLSPGERATLSCQASQAVSSNYLAWYQQKPGQAPRLLIYGASSRATGIPDRFSGSGSGTDFTLTISRLEPEDFAVYYCQQVVHSPYTFGGGTKVEIKR
B4: 2F1_LS#17 (antibody, human IgG1, kappa, V domains shown)
VH: EVQLVESGGGLVQPGGSLRLSCAASGFTFSSYAMSWVRQAPGKGLEWVSRISGSGGYIYYADSVKGRFTISRDNSKNTLYLQMNSLRAEDTAVYYCAKEGTSSYRGWMDVWGQGTLVTVSS
VL: DIQMTQSPSSLSASVGDRVTITCRASQSISNYLNWYQQKPGKAPKLLIYAASRLQSDVPSRFSGSGSGTDFTLTISSLQPEDFATYYCQQSYSTPWTFGQGTKVEIKR
B5: 2F1CDRH3#10 (antibody, human IgG1, kappa, V domains shown)
VH: B4 VH with I58K
VL: IQMTQSPSSLSASVGDRVTITCRASQSISNYLNWYQQKPGKAPKLLIYATSTLQSGVPSRFSGSGSGTDFTLTISSLQPEDFATYYCQQSYTTPWTFGQGTKVEIKR
B6: 2F1CDRH3#26 (antibody, human IgG1, kappa, V domains shown)
VH: B4 VH with G56S, I58T, T101A
VL: B4 VL with A51T, D57G, Y92H
B7: 2F1_LS#24 (antibody, human IgG1, kappa, V domains shown)
VH: B4 VH
VL: B4 VL with Y32W, D57G, S93T, T94S
B8: 2F1HS6LS#46 (antibody, human IgG1, kappa, V domains shown)
VH: B4 VH with S31D, G53Q, G56S, I58T
VL: B4 VL with Y32W, A51T, D57G
B9: 2F1_LS#26 (antibody, human IgG1, kappa, V domains shown)
VH: B4 VH
VL: B4 VL with A51T, D57G, T94F
B10: 2F1CDRH3#17 (antibody, human IgG1, kappa, V domains shown)
VH: B4 VH with S31D, S54T, G56S, I58K, S103T
VL: B4 VL with A51T, D57G, S93T
B11: 2F1_LS#39 (antibody, human IgG1, kappa, V domains shown)
VH: B4 VH
VL: B4 VL with N31R, A51T, R53N, Q55H, D57G, S93T, T94S

target: Recombinant HLA-G antigen (human) (UniProt P17693); assay: ELISA, recombinant HLA-G coated, antibody from 20 nM, anti-human IgG HRP

binding	Binder
binds	B1
binds	B2
binds	B3
binds	B4
binds	B5
binds	B6
binds	B7
binds	B8
binds	B9
binds	B10
binds	B11
